According to PubChem BioAssay AID504467 (National Center for Advancing Translational Sciences (NCATS), 2011):
Out of some 330,000 compounds screened, about 7,700 (2.3%) were called active. The shares of active, inactive and inconclusive entries below differ from those in the screen. Calls follow the shape of the dose curve; as a rule, active = well fitted inhibition curve with a large enough effect; inconclusive = small, poorly fitted or top-dose-only effect, or effect the other way; inactive = flat fitted curve, though single readings scatter. Potencies beside an inconclusive call are fits to weak or partial responses and may not hold up.
Potency is read from the fitted curve at half-maximal effect.

Experiment: qHTS screen for small molecules that inhibit ELG1-dependent DNA repair in human embryonic kidney (HEK293T) cells expressing luciferase-tagged ELG1; also: nearly all actives have a fitted effect of over 55% in size
Conditions: HEK293T ELG1-luciferase reporter, luminescence, 16 h, DNA damage induced by 5-fluorouridine; series mostly up to 46.1 µM
How it was run: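 5-Fluorouridine DNA damage + compound/DMSO, 2,000 cells/well, 16 h, 37 °C/5% CO2. ONE-Glo, 30 min RT, luminescence. Readout = decrease in reporter signal.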
In the case of `C=CCn1c(CCNC(=O)c2ccccc2F)nnc1SCC(=O)Nc1nc2ccccc2s1`, the Potency is reported as inconclusive: 23.1 µM [inhibitor, single point].
For `COCCOC(=O)/C(=C/c1ccc(OC(=O)c2ccccc2)cc1)C(C)=O`, the Potency was inconclusive: 18.4 µM [activator, single point].
In the case of `CC(C)(C)OC(=O)NCCCCCNC(=O)c1nc[nH]c1C(=O)NCCCCCNC(=O)OC(C)(C)C`, the Potency is reported as active: 2.59 µM.
For `CC(C)=CCCC(C)CN1CCC(n2nccc2NC(=O)c2ccccc2)CC1` (stereo unspecified), the Potency was “inactive”.
With `CCC(C)n1cnc2c(c1=O)c1nc3ccccc3nc1n2Cc1ccc(OC)cc1` (stereo unspecified) the Potency was inconclusive: 16.4 µM [inhibitor, single point].
In the case of `CCC(Oc1ccccc1)C(=O)Nc1nc2ccccc2[nH]1` (stereo unspecified), the Potency is reported as inconclusive: 9.2 µM [activator, partial curve].
In the case of `Cc1cccc(/C(N)=N/OC(=O)COc2ccc(Cl)c(C)c2)c1`, the Potency is reported as “inactive”.
For `CSc1oc(-c2ccccc2)nc1S(=O)(=O)c1ccc(F)cc1`, the Potency was inconclusive: 20.6 µM [inhibitor, single point].
In the case of `c1coc(-c2nc3nc4ccccc4nc3n2-c2ccc3c(c2)OCCO3)c1`, the Potency is reported as active: 16.4 µM.
In the case of `CC(C)CC(NC(=O)OC(C)(C)C)c1cn([C@@H](Cc2cc3ccccc3[nH]2)C(=O)N2CCN(C(=O)OC(C)(C)C)CC2)nn1` (stereo partly specified), the Potency is reported as inconclusive: 20.6 µM [inhibitor, single point].
With `O=C(Cn1c(=O)c(=O)n(Cc2ccccc2)c2ccc(Cl)cc21)NCC1CCCO1` (stereo unspecified) the Potency was “inactive”.
For `CCOC(=O)c1c(C(F)(F)C(F)(F)C(F)(F)C(F)(F)F)n[nH]c1C`, the Potency was inconclusive: 32.6 µM [activator, partial curve, poor fit].
With `Cc1ccc(-n2nc3c(SCCN4CCOCC4)nnc(C)c3c2C)cc1` the Potency was inconclusive: 23.1 µM [inhibitor, single point].
With `O=C(C1CC(c2ccccc2O)=NO1)N1CCCCC1` (stereo unspecified) the Potency was inconclusive: 10.3 µM [activator, partial curve].
With `Cc1cc(NCc2ccccn2)n2nc(C)c(-c3ccc(Cl)cc3)c2n1` the Potency was active: 25.9 µM.
In the case of `Nc1nonc1N/N=C\c1ccccc1`, the Potency is reported as inconclusive: 16.4 µM [activator, partial curve, poor fit].
With `N#Cc1c(C(F)(F)F)cc(-c2ccc(F)cc2)[nH]c1=O` the Potency was active: 18.3 µM.
For `COc1ccc(-c2csc3nc(C)nc(N4CCCCC4)c23)cc1OC`, the Potency was inconclusive: 16.4 µM [activator, single point].
In the case of `COc1ccc(NC(=O)CCC2COc3ccccc3O2)c(OC)c1` (stereo unspecified), the Potency is reported as “inactive”.
In the case of `COc1cccc(C(=O)NCc2ccc(-c3nc4ccccc4s3)cc2)c1`, the Potency is reported as inconclusive: 14.6 µM [activator, partial curve].
In the case of `Cc1cc(N(C)C)nc(Nc2ccccc2)n1`, the Potency is reported as active: 14.6 µM.
For `Cc1ccc(N2C(=O)N(CC(=O)Nc3cc(F)ccc3C)C(=O)C2C)cc1` (stereo unspecified), the Potency was inconclusive: 7.3 µM [inhibitor, single point].
For `CCc1ccc(NC(=O)C2C3/C=C\CCCCC32)cc1` (stereo unspecified), the Potency was inconclusive: 11.6 µM [activator, partial curve].
For `COc1cccc2cc(C(=O)NCc3ccc(C)cc3)c(=O)oc12`, the Potency was “inactive”.
With `O=C(O)C1CCCN(S(=O)(=O)c2ccc(Br)s2)C1` (stereo unspecified) the Potency was “inactive”.
In the case of `O=C(CSc1nc2ncc(Br)cc2[nH]1)Nc1ccccc1-c1ccccc1`, the Potency is reported as inconclusive: 11.6 µM [inhibitor, partial curve, poor fit].
With `Cc1ccc(-n2c(C)cc(C(=O)CN3CCCCC3)c2C)cc1` the Potency was inconclusive: 16.4 µM [activator, single point].
For `O=C(C1CCN(S(=O)(=O)c2ccc(Cl)cc2)CC1)N1CCCCCCC1`, the Potency was inconclusive: 32.6 µM [inhibitor, partial curve, poor fit].
With `CCC(CC)c1nnc(NC(=O)C2COc3ccccc3O2)s1` (stereo unspecified) the Potency was inconclusive: 1.3 µM [activator, full curve, poor fit].
With `CCn1c2ccccc2c2cc(NS(=O)(=O)c3ccc(C)cc3)ccc21` the Potency was “inactive”.
For `COc1ccc(NC(=O)c2ccccc2NS(C)(=O)=O)cc1OC`, the Potency was “inactive”.
For `O=C(Nc1ccc(N2CCOCC2)nc1)c1cccs1`, the Potency was inconclusive: 20.6 µM [activator, partial curve].
In the case of `Nc1ccc(N2CCCCC2)c(Cl)c1`, the Potency is reported as inconclusive: 16.4 µM [activator, partial curve, poor fit].
In the case of `COc1ccc(C(=O)Nc2cccnc2)cc1C(=O)Nc1cccnc1`, the Potency is reported as inconclusive: 14.6 µM [activator, partial curve, poor fit].
For `O=C1O/C(=C/c2ccccc2)N=C1c1ccccc1`, the Potency was “inactive”.
In the case of `CC(C)C(NC(=O)c1ccc(Cl)cc1Cl)C(=O)N1CCC1` (stereo unspecified), the Potency is reported as “inactive”.
In the case of `COC(=O)c1nn(-c2ccccc2)nc1-c1nn(-c2ccccc2)nc1C(=O)OC`, the Potency is reported as “inactive”.
In the case of `Cc1ccc(S(=O)(=O)N(C)C)cc1NC(=O)c1ccccc1SCC(=O)N1CCCC1`, the Potency is reported as “inactive”.
With `Cc1ccsc1/C=N/NC(=O)c1sccc1C` the Potency was inconclusive: 9.2 µM [activator, partial curve, poor fit].
With `CC(C)CC(=O)Nc1nnc(S(=O)(=O)N2CCCCCC2)s1` the Potency was “inactive”.
With `Cc1ccc(OCC(=O)Nc2ccc3c(c2)nc(CCN2CCN(C)CC2)n3C)cc1` the Potency was “inactive”.
With `COc1ccccc1CNC(=O)C(=O)NCC1CCCN1S(=O)(=O)c1cccs1` (stereo unspecified) the Potency was “inactive”.
With `Cn1c(C(=O)Nc2ccc(Cl)cc2)cc2cc(Cl)ccc21` the Potency was “inactive”.
In the case of `CC(C)(C)c1ccc(C(=O)NC(=O)COC(=O)c2ccco2)cc1`, the Potency is reported as inconclusive: 29.1 µM [activator, single point].
For `O=C(Nc1cc(Cl)ccc1N1CCOCC1)c1ccncc1`, the Potency was inconclusive: 4.61 µM [inhibitor, partial curve, poor fit].
For `Nc1c(Cl)ncnc1NCC(O)CO` (stereo unspecified), the Potency was “inactive”.
For `CCOC(=O)C1=CC[C@H]2c3c(c4ccccc4n3C)C(=O)C1N2C(=O)OC(C)(C)C`, the Potency was inconclusive: 18.3 µM [activator, single point].
For `O=C(CSc1n[nH]c(Cc2ccccc2)n1)Nc1ccccc1Br`, the Potency was “inactive”.
For `CN(Cc1ccccc1)C(=O)c1ccc(NC(=O)Cc2ccc([N+](=O)[O-])cc2)cc1`, the Potency was inconclusive: 29.1 µM [inhibitor, single point].
With `Cc1ccc(NC(=O)C2CCN(C(=O)c3ccc(F)cc3)CC2)nc1` the Potency was “inactive”.
For `CC(C)CNC(=O)C(=O)Nc1cc2c3c(c1)C(C)C(=O)N3CCC2` (stereo unspecified), the Potency was inconclusive: 16.4 µM [activator, partial curve, poor fit].
With `CCN(CC(=O)Nc1c(F)cccc1F)C(=O)CN1c2cccc3cccc(c23)S1(=O)=O` the Potency was inconclusive: 13 µM [inhibitor, partial curve, poor fit].
In the case of `Cc1ccc(NC(=O)Cn2c(=O)c3cccn3c3ccccc32)cc1`, the Potency is reported as inconclusive: 14.6 µM [activator, single point].
For `O=C1c2ccccc2NC(c2ccc(-c3ccc(F)cc3)o2)N1O` (stereo unspecified), the Potency was inconclusive: 5.17 µM [activator, partial curve].
With `CCOc1ccc(-n2c(=S)sc3c(=O)[nH]c(SCC(=O)NCC4CCCO4)nc32)cc1` (stereo unspecified) the Potency was “inactive”.
For `COc1ccc2oc(C(=O)Nc3ccc(C)cn3)c(C)c2c1`, the Potency was inconclusive: 4.11 µM [activator, partial curve].
In the case of `O=C(Nc1cc(C(F)(F)F)ccc1N1CCCC1)C1CCCO1` (stereo unspecified), the Potency is reported as inconclusive: 7.3 µM [activator, partial curve, poor fit].
With `Nc1sc(-c2ccccc2)cc1C(=O)O` the Potency was inconclusive: 29.1 µM [activator, single point].
With `Cc1ccc(NC(=O)CN2C(=O)NC3(CCc4ccccc43)C2=O)cc1` (stereo unspecified) the Potency was “inactive”.
For `CC(C)(C)c1ccc(S(=O)(=O)NCC(=O)N2CCN(Cc3ccccc3)CC2)cc1`, the Potency was “inactive”.
In the case of `COc1ccc(NC(C)=O)cc1NC(C)c1nc2sc(C)c(C)c2c(=O)[nH]1` (stereo unspecified), the Potency is reported as active: 20.6 µM.
With `Oc1ccc(-c2nc3ccccn3c2NCc2ccc3c(c2)OCO3)cc1` the Potency was “inactive”.
With `O=C(Cn1cc2c(n1)CCCC2)NCCc1ccccc1` the Potency was inconclusive: 32.6 µM [activator, partial curve, poor fit].
In the case of `Cc1ccc(OC(C)C(=O)Nc2cc(C)on2)cc1` (stereo unspecified), the Potency is reported as “inactive”.
In the case of `O=C(OCc1cc(=O)oc2cc(O)ccc12)c1cc(S(=O)(=O)N2CCOCC2)ccc1F`, the Potency is reported as inconclusive: 29.1 µM [activator, single point].
With `CCOC(=O)CCNC(=O)N1CCCC(CNS(=O)(=O)c2cccs2)C1` (stereo unspecified) the Potency was “inactive”.
For `S=C(NC1CC2CCC1C2)N1CCN(c2cccc(Cl)c2)CC1` (stereo unspecified), the Potency was inconclusive: 29.1 µM [inhibitor, single point].
In the case of `O=C(Cc1ccc(S(=O)(=O)N2CCCCC2)s1)Nc1ccc(F)c(F)c1`, the Potency is reported as “inactive”.
For `CC(=O)N(c1cccc(Br)c1)c1nc(C)cc(C)c1C#N`, the Potency was inconclusive: 0.92 µM [inhibitor, partial curve, poor fit].
In the case of `Cc1cc(OCCCC(=O)Nc2nnc(C3CC3)s2)ccc1Cl`, the Potency is reported as “inactive”.
In the case of `CCCN(CCC)S(=O)(=O)c1ccc(Cl)c(OC)c1`, the Potency is reported as “inactive”.
With `CCCNC(=O)c1ccc(N2CCC3(CC2)CC(c2cccc(Br)c2)=NO3)c(NC(=O)c2ccccc2)c1` the Potency was inconclusive: 35.5 µM [inhibitor, single point].
With `CCOc1ccc(-c2nc(C#N)c(NCc3ccco3)o2)cc1` the Potency was “inactive”.
For `CCOc1ccc(S(=O)(=O)N2CCCC(C(=O)N3CCOCC3)C2)cc1Cl` (stereo unspecified), the Potency was “inactive”.
In the case of `CC(=O)c1cc2ccc(O)cc2oc1=O`, the Potency is reported as “inactive”.
For `NC(=O)C1CCN(C(=O)COc2ccc(Nc3ccccc3)cc2)CC1`, the Potency was “inactive”.
